From publication PMC8227810
Results are given in words; binding and its absence hold for the method and conditions named. Binding seen in cells or lysates may run through a third protein. Some binding calls cover weakened binding; strength is not graded here. Where a sequence is shown, tags or fusion partners need not be part of it.

target: T1, FLAG-tagged FAM111B (UniProt Q6SJ93); test: pull-down; only the target purified
T1 sequence: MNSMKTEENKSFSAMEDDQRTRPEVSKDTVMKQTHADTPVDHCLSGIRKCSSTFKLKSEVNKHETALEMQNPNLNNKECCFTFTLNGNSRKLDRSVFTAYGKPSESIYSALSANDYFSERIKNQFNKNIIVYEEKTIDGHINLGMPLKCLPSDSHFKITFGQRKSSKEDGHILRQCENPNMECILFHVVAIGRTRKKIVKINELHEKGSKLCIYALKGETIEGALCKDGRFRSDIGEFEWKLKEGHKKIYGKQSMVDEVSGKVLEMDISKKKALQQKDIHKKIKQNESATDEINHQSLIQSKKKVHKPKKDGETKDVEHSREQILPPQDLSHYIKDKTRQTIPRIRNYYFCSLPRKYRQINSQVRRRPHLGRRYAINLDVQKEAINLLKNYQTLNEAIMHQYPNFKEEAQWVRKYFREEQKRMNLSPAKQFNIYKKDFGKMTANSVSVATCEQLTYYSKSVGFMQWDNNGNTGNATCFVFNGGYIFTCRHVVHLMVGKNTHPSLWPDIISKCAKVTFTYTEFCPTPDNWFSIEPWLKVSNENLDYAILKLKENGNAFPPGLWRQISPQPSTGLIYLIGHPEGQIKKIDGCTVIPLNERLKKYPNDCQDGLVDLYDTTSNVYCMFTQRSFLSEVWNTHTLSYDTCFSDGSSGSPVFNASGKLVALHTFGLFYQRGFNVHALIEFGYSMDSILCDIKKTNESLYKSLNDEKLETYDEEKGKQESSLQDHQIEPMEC

Substance	binding
HAdV-C5 E1A 13S (from UniProt P03255 1-289)	no binding
HAdV-C5 E1A 12S (from UniProt P03255-2 1-243)	no binding
HAdV-C5 E1B-55K (from UniProt P03243 1-496)	binds
